Experimental data from PMC7949057, “The cytoprotective protein MANF promotes neuronal survival independently from its role as a GRP78 cofactor” (The Journal of Biological Chemistry, 2021).
No constants are given. Whether binding was seen depends on the method and setting. For part of these data: In cells and extracts the contact can be indirect. Some results given as binding are weak or reduced against the parent protein; the word gives no strength. For part of these data: Where a sequence is shown, tags or fusion partners need not be part of it.

The chains behind the UniProt entries cited, without tags or fusion partners. Residues count along the entry.
UniProt G3I8R9, residues 19-654: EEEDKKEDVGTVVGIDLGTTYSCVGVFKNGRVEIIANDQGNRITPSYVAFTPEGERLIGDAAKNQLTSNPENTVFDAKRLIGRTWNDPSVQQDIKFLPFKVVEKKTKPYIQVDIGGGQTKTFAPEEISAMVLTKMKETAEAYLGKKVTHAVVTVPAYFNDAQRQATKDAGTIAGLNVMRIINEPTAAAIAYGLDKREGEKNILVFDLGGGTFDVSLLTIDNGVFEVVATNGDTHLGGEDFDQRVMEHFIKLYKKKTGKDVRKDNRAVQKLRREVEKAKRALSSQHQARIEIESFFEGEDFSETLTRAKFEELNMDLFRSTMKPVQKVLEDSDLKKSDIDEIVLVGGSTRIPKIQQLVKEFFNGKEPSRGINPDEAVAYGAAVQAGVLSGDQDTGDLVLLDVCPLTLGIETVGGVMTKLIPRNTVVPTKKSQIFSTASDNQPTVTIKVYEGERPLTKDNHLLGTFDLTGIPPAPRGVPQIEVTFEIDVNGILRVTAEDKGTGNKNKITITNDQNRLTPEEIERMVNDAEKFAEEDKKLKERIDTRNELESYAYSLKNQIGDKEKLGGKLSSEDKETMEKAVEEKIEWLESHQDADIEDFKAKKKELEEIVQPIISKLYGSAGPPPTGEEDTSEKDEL

T1: MANF N-terminally tagged with a Venus fragment (pre-NV-MANF or pre-CV-MANF) (human) (UniProt P55145)
T1 sequence: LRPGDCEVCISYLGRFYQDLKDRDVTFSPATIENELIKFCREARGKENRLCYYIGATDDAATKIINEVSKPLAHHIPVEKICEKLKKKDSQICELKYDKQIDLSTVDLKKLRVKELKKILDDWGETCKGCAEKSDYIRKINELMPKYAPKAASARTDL

B1: GRP170 (HYOU1) fused with a Venus fragment (BiFC) (protein, UniProt Q9Y4L1 33-999)
chain: LAVMSVDLGSESMKVAIVKPGVPMEIVLNKESRRKTPVIVTLKENERFFGDSAASMAIKNPKATLRYFQHLLGKQADNPHVALYQARFPEHELTFDPQRQTVHFQISSQLQFSPEEVLGMVLNYSRSLAEDFAEQPIKDAVITVPVFFNQAERRAVLQAARMAGLKVLQLINDNTATALSYGVFRRKDINTTAQNIMFYDMGSGSTVCTIVTYQMVKTKEAGMQPQLQIRGVGFDRTLGGLEMELRLRERLAGLFNEQRKGQRAKDVRENPRAMAKLLREANRLKTVLSANADHMAQIEGLMDDVDFKAKVTRVEFEELCADLFERVPGPVQQALQSAEMSLDEIEQVILVGGATRVPRVQEVLLKAVGKEELGKNINADEAAAMGAVYQAAALSKAFKVKPFVVRDAVVYPILVEFTREVEEEPGIHSLKHNKRVLFSRMGPYPQRKVITFNRYSHDFNFHINYGDLGFLGPEDLRVFGSQNLTTVKLKGVGDSFKKYPDYESKGIKAHFNLDESGVLSLDRVESVFETLVEDSAEEESTLTKLGNTISSLFGGGTTPDAKENGTDTVQEEEESPAEGSKDEPGEQVELKEEAEAPVEDGSQPPPPEPKGDATPEGEKATEKENGDKSEAQKPSEKAEAGPEGVAPAPEGEKKQKPARKRRMVEEIGVELVVLDLPDLPEDKLAQSVQKLQDLTLRDLEKQEREKAANSLEAFIFETQDKLYQPEYQEVSTEEQREEISGKLSAASTWLEDEGVGATTVMLKEKLAELRKLCQGLFFRVEERKKWPERLSALDNLLNHSSMFLKGARLIPEMDQIFTEVEMTTLEKVINETWAWKNATLAEQAKLPATEKPVLLSKDIEAKMMALDREVQYLLNKAKFTKPRPRPKDKNGTRAEPPLNASASDQGEKVIPPAGQTEDAEPISEPEKVETGSEPGDTEPLELGGPGAEPEQKEQSTGQKRPLKNDEL
B2: CH1-derived substrate peptide (HTFPAVL) (peptide)
peptide: HTFPAVL

How the values were obtained:
[1] = target: T1, MANF N-terminally tagged with a Venus fragment (pre-NV-MANF or pre-CV-MANF) (human); experiment: split reporter; split Venus BiFC (NV, VN173 and CV, VC155) in co-transfected HEK293 cells, fixed 20 to 24 h after transfection, confocal imaging, ER shown by anti-calreticulin
[2] = target: Recombinant hamster GRP78 protein (hamster) (UniProt G3I8R9); experiment: MST; as a4, in the presence of AMP-PNP; both purified
[3] = target: Recombinant hamster GRP78 protein (hamster) (UniProt G3I8R9); experiment: MST; as a4, in the presence of ATP (2 mM by the discussion); both purified

Row | Binder | binding [1] | binding [2] | binding [3]
1 | B1 | binds | – | –
2 | B2 | – | no binding (condition: with AMP-PNP) | no binding (condition: with ATP)
